# Reference: article PMC8462813
# No constants are given. Whether binding was seen depends on the method and setting. For part of these data: In cells and extracts the contact can be indirect. Tags and fused reporters may be left off the sequences shown.
# What was measured:
# [1] = molecular target: PRR9-nYFP (Arabidopsis thaliana); experiment: split reporter; BiFC with cYFP and nYFP fusions transiently coexpressed in N. benthamiana leaf cells; YFP fluorescence read by confocal microscopy 40-52 h after infiltration
# [2] = molecular target: BD-PRR3 (full length, fused to the Gal4 DNA-binding domain) (Arabidopsis thaliana); experiment: two-hybrid; Gal4 system; baits in pGBKT7 (BD), preys in pGADT7 (AD), cotransformed into yeast AH109; growth on dropout medium lacking Leu, Trp, His and Ade for 4 days
# [3] = molecular target: BD-PRR9 (full length, fused to the Gal4 DNA-binding domain) (Arabidopsis thaliana); experiment: as above
binding [1],binding [2],binding [3],Binder
no binding,,,"ABI5-cYFP (protein, UniProt Q9SJN0 1-442) MVTRETKLTSEREVESSMAQARHNGGGGGENHPFTSLGRQSSIYSLTLDEFQHALCENGKNFGSMNMDEFLVSIWNAEENNNNQQQAAAAAGSHSVPANHNGFNNNNNNGGEGGVGVFSGGSRGNEDANNKRGIANESSLPRQGSLTLPAPLCRKTVDEVWSEIHRGGGSGNGGDSNGRSSSSNGQNNAQNGGETAARQPTFGEMTLEDFLVKAGVVREHPTNPKPNPNPNQNQNPSSVIPAAAQQQLYGVFQGTGDPSFPGQAMGVGDPSGYAKRTGGGGYQQAPPVQAGVCYGGGVGFGAGGQQMGMVGPLSPVSSDGLGHGQVDNIGGQYGVDMGGLRGRKRVVDGPVEKVVERRQRRMIKNRESAARSRARKQAYTVELEAELNQLKEENAQLKHALAELERKRKQQYFESLKSRAQPKLPKSNGRLRTLMRNPSCPL"
,no binding,no binding,"AD-ABI5 (ABSCISIC ACID-…5, full length, fused to the Gal4 activation domain) (protein, UniProt Q9SJN0 1-442) MVTRETKLTSEREVESSMAQARHNGGGGGENHPFTSLGRQSSIYSLTLDEFQHALCENGKNFGSMNMDEFLVSIWNAEENNNNQQQAAAAAGSHSVPANHNGFNNNNNNGGEGGVGVFSGGSRGNEDANNKRGIANESSLPRQGSLTLPAPLCRKTVDEVWSEIHRGGGSGNGGDSNGRSSSSNGQNNAQNGGETAARQPTFGEMTLEDFLVKAGVVREHPTNPKPNPNPNQNQNPSSVIPAAAQQQLYGVFQGTGDPSFPGQAMGVGDPSGYAKRTGGGGYQQAPPVQAGVCYGGGVGFGAGGQQMGMVGPLSPVSSDGLGHGQVDNIGGQYGVDMGGLRGRKRVVDGPVEKVVERRQRRMIKNRESAARSRARKQAYTVELEAELNQLKEENAQLKHALAELERKRKQQYFESLKSRAQPKLPKSNGRLRTLMRNPSCPL"
